Data as given in the supplement of paper PMC8728848.
The list shows a part of the results.

Legend:
Assay in all cases: glycan array binding signal (z-score within array); higher = stronger binding
Settings in all cases: glycan notation: IUPAC condensed, linker removed
[1] = target: Neu5Ac(a2-6)Gal(b1-4)GlcNAc(b1-3)Gal(b1-4)GlcNAc(b1-3)Gal(b1-4)GlcNAc
Summary of the method: (§1)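 The Consortium for Functional Glycomics database supplied 3228 glycan arrays, of which those lacking an available protein sequence were dropped. The binding signal, a within-array Z-score, was averaged across arrays of the same protein sequence and across linkers. Negative scores can be read as non-binding.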

[2] = target: Neu5Ac(a2-6)Gal(b1-4)GlcNAc(b1-3)Gal(b1-4)GlcNAc(b1-3)Gal(b1-4)GlcNAc(b1-2)Man(a1-3)[Neu5Ac(a2-6)Gal(b1-4)GlcNAc(b1-3)Gal(b1-4)GlcNAc(b1-3)Gal(b1-4)GlcNAc(b1-2)Man(a1-6)]GalNAc
Summary of the method: as §1

[3] = target: Neu5Ac(a2-6)Gal(b1-4)GlcNAc(b1-3)Gal(b1-4)GlcNAc(b1-3)GalNAc
Summary of the method: as §1

[4] = target: Neu5Ac(a2-6)Gal(b1-4)GlcNAc(b1-3)Gal(b1-4)GlcNAc(b1-3)[Neu5Ac(a2-6)Gal(b1-4)GlcNAc(b1-3)Gal(b1-4)GlcNAc(b1-6)]GalNAc
Summary of the method: as §1

[5] = target: Neu5Ac(a2-6)Gal(b1-4)GlcNAc(b1-3)Gal(b1-4)GlcNAc(b1-6)[Gal(b1-3)]GalNAc
Summary of the method: as §1

[6] = target: Neu5Ac(a2-6)Gal(b1-4)GlcNAc(b1-3)Gal(b1-4)[Fuc(a1-3)]GlcNAc(b1-3)Gal(b1-4)[Fuc(a1-3)]GlcNAc
Summary of the method: as §1

[7] = target: Neu5Ac(a2-6)Gal(b1-4)GlcNAc(b1-3)GalNAc
Summary of the method: as §1

[8] = target: Neu5Ac(a2-6)Gal(b1-4)GlcNAc(b1-3)[Neu5Ac(a2-6)Gal(b1-4)GlcNAc(b1-6)]GalNAc
Summary of the method: as §1

[9] = target: Neu5Ac(a2-6)Gal(b1-4)GlcNAc(b1-6)GalNAc
Summary of the method: as §1

[10] = target: Neu5Ac(a2-6)Gal(b1-4)GlcNAc(b1-6)[Gal(b1-3)GlcNAc(b1-3)]Gal(b1-4)Glc
Summary of the method: as §1

[11] = target: Neu5Ac(a2-6)Gal(b1-4)GlcNAc(b1-6)[Gal(b1-3)]GalNAc
Summary of the method: as §1

[12] = target: Neu5Ac(a2-6)Gal(b1-4)GlcNAc6S
Summary of the method: as §1

[13] = target: Neu5Ac(a2-6)GalNAc
Summary of the method: as §1

[14] = target: Neu5Ac(a2-6)GalNAc(b1-4)GlcNAc
Summary of the method: as §1

[15] = target: Neu5Ac(a2-6)GalNAc(b1-4)GlcNAc6S
Summary of the method: as §1

[16] = target: Neu5Ac(a2-6)GlcNAc(b1-4)GlcNAc
Summary of the method: as §1

[17] = target: Neu5Ac(a2-6)GlcNAc(b1-4)GlcNAc(b1-4)GlcNAc
Summary of the method: as §1

[18] = target: Neu5Ac(a2-8)Neu5Ac
Summary of the method: as §1

[19] = target: Neu5Ac(a2-8)Neu5Ac(a2-3)Gal(b1-3)GalNAc(b1-4)[Neu5Ac(a2-3)]Gal(b1-4)Glc
Summary of the method: as §1

[20] = target: Neu5Ac(a2-8)Neu5Ac(a2-3)Gal(b1-3)GalNAc(b1-4)[Neu5Ac(a2-8)Neu5Ac(a2-3)]Gal(b1-4)Glc
Summary of the method: as §1

[21] = target: Neu5Ac(a2-8)Neu5Ac(a2-3)Gal(b1-4)Glc
Summary of the method: as §1

[22] = target: Neu5Ac(a2-8)Neu5Ac(a2-3)Gal(b1-4)GlcNAc
Summary of the method: as §1

[23] = target: Neu5Ac(a2-8)Neu5Ac(a2-3)[Gal(b1-3)GalNAc(b1-4)]Gal(b1-4)Glc
Summary of the method: as §1

[24] = target: Neu5Ac(a2-8)Neu5Ac(a2-3)[GalNAc(b1-4)]Gal(b1-4)Glc
Summary of the method: as §1

[25] = target: Neu5Ac(a2-8)Neu5Ac(a2-8)Neu5Ac
Summary of the method: as §1

[26] = target: Neu5Ac(a2-8)Neu5Ac(a2-8)Neu5Ac(a2-3)Gal(b1-4)Glc
Summary of the method: as §1

[27] = target: Neu5Ac(a2-8)Neu5Ac(a2-8)Neu5Ac(a2-3)[Gal(b1-3)GalNAc(b1-4)]Gal(b1-4)Glc
Summary of the method: as §1

[28] = target: Neu5Ac(a2-8)Neu5Ac(a2-8)Neu5Ac(a2-3)[GalNAc(b1-4)]Gal(b1-4)Glc
Summary of the method: as §1

[29] = target: Neu5Ac(a2-8)Neu5Ac(a2-8)Neu5Ac(a2-8)Neu5Ac(a2-3)[GalNAc(b1-4)]Gal(b1-4)Glc
Summary of the method: as §1

[30] = target: Neu5Ac(a2-8)Neu5Gc(a2-3)Gal(b1-4)GlcNAc
Summary of the method: as §1

[31] = target: Neu5Ac(b2-6)Gal(b1-4)GlcNAc
Summary of the method: as §1

[32] = target: Neu5Ac(b2-6)GalNAc
Summary of the method: as §1

[33] = target: Neu5Ac9Ac(a2-3)Gal(b1-3)GlcNAc
Summary of the method: as §1

[34] = target: Neu5Ac9Ac(a2-3)Gal(b1-4)GlcNAc
Summary of the method: as §1

[35] = target: Neu5Ac9Ac(a2-6)Gal(b1-4)GlcNAc
Summary of the method: as §1

[36] = target: Neu5Gc(a2-3)Gal(b1-3)GlcNAc
Summary of the method: as §1

[37] = target: Neu5Gc(a2-3)Gal(b1-3)[Fuc(a1-4)]GlcNAc
Summary of the method: as §1

[38] = target: Neu5Gc(a2-3)Gal(b1-4)Glc
Summary of the method: as §1

[39] = target: Neu5Gc(a2-3)Gal(b1-4)GlcNAc
Summary of the method: as §1

[40] = target: Neu5Gc(a2-3)Gal(b1-4)GlcNAc(b1-3)Gal(b1-4)GlcNAc(b1-2)Man(a1-3)[Neu5Gc(a2-3)Gal(b1-4)GlcNAc(b1-3)Gal(b1-4)GlcNAc(b1-2)Man(a1-6)]Man(b1-4)GlcNAc(b1-4)GlcNAc
Summary of the method: as §1

[41] = target: Neu5Gc(a2-3)Gal(b1-4)[Fuc(a1-3)]GlcNAc
Summary of the method: as §1

[42] = target: Neu5Gc(a2-6)Gal(b1-4)GlcNAc
Summary of the method: as §1

[43] = target: Neu5Gc(a2-6)GalNAc
Summary of the method: as §1

[44] = target: Neu5Gc(a2-8)Neu5Ac(a2-3)Gal(b1-4)GlcNAc
Summary of the method: as §1

[45] = target: Neu5Gc(a2-8)Neu5Gc(a2-3)Gal(b1-4)GlcNAc
Summary of the method: as §1

B1: Epa8 (Candida glabrata) (protein)
chain: MGSSHHHHHHSSGLVPRGSHMASSRALSDYPLGCSPLLGTKLTPGLSMELYEYPLDNHGIGPHCWDPAYLNPEYPRTGFESHKLIGTAQNVMSLNFEHRTQDCHVEFSNLPASFNFPDQITLTNFTMLLYGYFKPKESGRYRFHMEADDLLLMNLGAGNAFDCCAHEATRNNLGDYIAYDIWAGTRKDVEVFLEKEVFYPLRLFFNNRDGRAALDFSYYLNGATEPGTDIPELLFSLPDGESCPAYI
For B1, the “glycan array binding signal (z-score)” value [1] was -0.084, the “glycan array binding signal (z-score)” value [2] was 3.31 and the “glycan array binding signal (z-score)” value [3] was -0.236. The “glycan array binding signal (z-score)” value [4] was 0.061, the “glycan array binding signal (z-score)” value [5] was -0.073 and the “glycan array binding signal (z-score)” value [6] was -0.491. The “glycan array binding signal (z-score)” value [7] was -0.429, the “glycan array binding signal (z-score)” value [8] was 0.279 and the “glycan array binding signal (z-score)” value [9] was 0.167. The “glycan array binding signal (z-score)” value [10] was -0.638, the “glycan array binding signal (z-score)” value [11] was -0.007 and the “glycan array binding signal (z-score)” value [12] was 0.102. For the same binder, the “glycan array binding signal (z-score)” value [13] was -0.562, the “glycan array binding signal (z-score)” value [14] was -0.911 and the “glycan array binding signal (z-score)” value [15] was 0.036. The “glycan array binding signal (z-score)” value [16] was 0.862, the “glycan array binding signal (z-score)” value [17] was -0.271 and the “glycan array binding signal (z-score)” value [18] was -0.558. The “glycan array binding signal (z-score)” value [19] was -0.319, the “glycan array binding signal (z-score)” value [20] was 0.256 and the “glycan array binding signal (z-score)” value [21] was -0.619. For the same binder, the “glycan array binding signal (z-score)” value [22] was -0.961, the “glycan array binding signal (z-score)” value [23] was -0.337 and the “glycan array binding signal (z-score)” value [24] was 1.71. The “glycan array binding signal (z-score)” value [25] was -0.037, the “glycan array binding signal (z-score)” value [26] was -0.563 and the “glycan array binding signal (z-score)” value [27] was 0.84. For the same binder, the “glycan array binding signal (z-score)” value [28] was 1.07, the “glycan array binding signal (z-score)” value [29] was -0.342 and the “glycan array binding signal (z-score)” value [30] was -0.642. For the same binder, the “glycan array binding signal (z-score)” value [31] was 0.817, the “glycan array binding signal (z-score)” value [32] was -0.423 and the “glycan array binding signal (z-score)” value [33] was -0.482. For the same binder, the “glycan array binding signal (z-score)” value [34] was -0.308, the “glycan array binding signal (z-score)” value [35] was -0.4 and the “glycan array binding signal (z-score)” value [36] was -0.539. For the same binder, the “glycan array binding signal (z-score)” value [37] was -0.218, the “glycan array binding signal (z-score)” value [38] was 0.498 and the “glycan array binding signal (z-score)” value [39] was -0.658. For the same binder, the “glycan array binding signal (z-score)” value [40] was -0.274, the “glycan array binding signal (z-score)” value [41] was -0.363 and the “glycan array binding signal (z-score)” value [42] was -0.202. For the same binder, the “glycan array binding signal (z-score)” value [43] was -0.49, the “glycan array binding signal (z-score)” value [44] was -0.528 and the “glycan array binding signal (z-score)” value [45] was -0.127.
